PubChem BioAssay AID504834 (National Center for Advancing Translational Sciences (NCATS), 2011)
The campaign covered roughly 320,000 compounds. About 22,000 (6.9%) were called active. Inconclusive results, whose numbers are uncertain, are shown with a selection of clear calls. The call rests on the fitted dose curve; in most records, active means well fitted inhibition curve with a large enough effect; inconclusive means small, poorly fitted or top-dose-only effect, or another doubt; inactive means no such curve, though single readings can be large or run the other way. A potency beside an inconclusive call is a rough fit, not a confirmed value.

Experiment: Primary qHTS for delayed death inhibitors of the malarial parasite plastid, 96 hour incubation
Conditions: P. falciparum luciferase reporter growth; series mostly up to 28.7 µM
Procedure, shortened: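 Compounds incubated with erythrocytes infected by luciferase-expressing P. falciparum (2% hematocrit, 0.05% parasitemia final) for 96 hours, 37 C in 5% CO2. Growth inhibition scored as decreased luciferase luminescence.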
Potency means the concentration at half of the fitted maximal effect.

| SMILES | Potency |
| --- | --- |
| Cc1onc(-c2ccccc2)c1C(=O)N1CCOC12CCN(c1cccc(F)n1)CC2 | inconclusive: 10.4 µM [inhibitor, single point] |
| Cc1ccc2nc3c(cc2c1)c(NC(=O)C(C)(C)C)nn3CC(C)C | active: 1.04 µM |
| C/C(=N/OC(=O)c1c(-c2c(F)cccc2Cl)noc1C)c1cnccn1 | inconclusive: 18.5 µM [inhibitor, single point] |
| CCc1ccccc1NS(=O)(=O)c1cccc2nsnc12 | inconclusive: 9.28 µM [inhibitor, partial curve, poor fit] |
| Nc1nc(COc2ccc(F)cc2)nc(N2CCCCC2)n1 | inactive |
| CC(C)C[C@H](NC(=O)c1[nH]cnc1C(=O)N[C@@H](Cc1ccccc1)C(=O)OCc1ccccc1)C(=O)OCc1ccccc1 | inconclusive: 0.522 µM [inhibitor, full curve, poor fit] |
| CCN(CC)C(=O)OCCc1cc2ccccc2c(=O)o1 | inconclusive: 7.38 µM [inhibitor, partial curve, poor fit] |
| Nc1ccc(-c2nc3cc(N)ccc3n2CCO)cc1 | inactive |
| COCCn1c(SCC(=O)N2CCCc3ccccc32)nc2c(c1=O)SC(C)C2 (centres undefined) | inconclusive: 9.28 µM [inhibitor, partial curve] |
| Cc1cccc(Cc2nnc(CCC(=O)N(C)Cc3ccncc3C)o2)c1 | inactive |
| CC(CCc1ccccc1)NC(=O)COC(=O)c1ccc(F)cc1 (centres undefined) | inactive |
| O=C(c1ccc(-c2ccccc2)cc1)C1CCCN(C(=O)c2cncs2)C1 (centres undefined) | inconclusive: 16.5 µM [inhibitor, single point] |
| Cc1cc(C)cc(N(CC(=O)Nc2ccc(C)cc2Cl)S(=O)(=O)c2c(C)[nH]c(=O)[nH]c2=O)c1 | inconclusive: 18.5 µM [inhibitor, single point] |
| CC1CN(c2ccc(Oc3ccccc3)cc2)c2nc3c(c(=O)[nH]c(=O)n3C)n2C1 (centres undefined) | inactive |
| CCOC(=O)C1CCCN(CC(=O)Nc2ccc(C(=O)Nc3ccccc3OC)cc2)C1 (centres undefined) | inconclusive: 14.7 µM [inhibitor, single point] |
| Cc1ccc(S(=O)(=O)Nc2ccccc2-c2nc3ccccc3[nH]c2=O)cc1 | inactive |
| c1ccc(Oc2cccc(NC3=NCCC3)c2)cc1 | inconclusive: 18.5 µM [inhibitor, single point] |
| CCOC(=O)c1ccc(NC(=O)CN2C(=O)CSCC2=O)cc1 | inactive |
| O=C1CC(c2cc(Br)ccc2F)c2cc3c(cc2N1)CCC3 (centres undefined) | inactive |
| COc1ccc2cc(C(=O)NCC3CCCO3)[nH]c2c1 (centres undefined) | inactive |
| COc1ccc(C2C3=C(CCCC3=O)N(CC(=O)O)C3=C2C(=O)CCC3)cc1 | inconclusive: 0.738 µM [inhibitor, full curve, poor fit] |
| Cc1cccc(C(=O)NC(Oc2ccccc2)C(Cl)(Cl)Cl)c1 (centres undefined) | active: 7.38 µM |
| CC1(c2ccccc2)NC(=O)N(NC(=O)COC(=O)c2cc(Br)ccc2O)C1=O (centres undefined) | inactive |

Rewritten as comma-separated lines: entries from further up
SMILES,Potency
CCc1ccccc1NS(=O)(=O)c1cccc2nsnc12,"inconclusive: 9.28 µM [inhibitor, partial curve, poor fit]"
Nc1nc(COc2ccc(F)cc2)nc(N2CCCCC2)n1,inactive
CC(C)C[C@H](NC(=O)c1[nH]cnc1C(=O)N[C@@H](Cc1ccccc1)C(=O)OCc1ccccc1)C(=O)OCc1ccccc1,"inconclusive: 0.522 µM [inhibitor, full curve, poor fit]"

Following part:

| SMILES | Potency |
| --- | --- |
| COc1ccc(CCNC(=O)C(=O)N/N=C/c2cccs2)cc1OC | inconclusive: 14.7 µM [inhibitor, partial curve, poor fit] |
| COc1ccc2[nH]c3c(c2c1)CCN1C(=O)N([C@@H](C)C(=O)NCc2ccc(C)cc2)C(=O)[C@]31C | inconclusive: 11.7 µM [inhibitor, partial curve] |
| Cc1cccnc1NC(=O)c1ccc(NS(=O)(=O)c2ccc3[nH]c(=O)[nH]c3c2)cc1 | inactive |
| CCn1c(SCC(=O)Nc2ccc(NC(C)=O)cc2)nc2c1c(=O)n(C)c(=O)n2C | inactive |
| COc1ccc(N(CC(=O)NN=C2CCCC2)S(=O)(=O)c2ccccc2)cc1Cl | inconclusive: 4.65 µM [inhibitor, partial curve] |
| CCOC(=O)C1CSC(CC(=O)Nc2ccc(Cl)cc2)C(=O)N1 (centres undefined) | inconclusive: 14.7 µM [inhibitor, single point] |
| CCOc1cc(OCC)c(C(=O)CCC(=O)O)cc1OCC | active: 2.39 µM |
| Cc1c(C(=O)NC(=S)NCc2cccnc2)cccc1[N+](=O)[O-] | inactive |
| CN(C)Cc1c[nH]c2ccccc12 | active: 9.28 µM |
| COc1ccc(C(=O)C/C(=C\C(=O)c2ccc(C)cc2)c2ccccc2)cc1 | active: 10.4 µM |
| O=C(Nc1ccccc1Cc1ccccc1)c1oc2ccccc2c1COc1ccccc1 | active: 10.4 µM |
| CCOC(=O)c1sc(=NC(=O)c2ccc(S(=O)(=O)N(C)c3ccccc3)cc2)n(C)c1C | inconclusive: 0.928 µM [inhibitor, full curve, poor fit] |
| COc1ccc(C(=O)CSc2nnc(CC(=O)Nc3ccccc3OC)n2C)cc1 | inconclusive: 11.7 µM [inhibitor, partial curve, poor fit] |
| Cc1ccccc1NCC(=O)N=Nc1c(O)[nH]c2ccc([N+](=O)[O-])cc12 | inconclusive: 18.5 µM [inhibitor, single point] |
| CCCC(=O)C1C(=O)CC(CC(C)SCC)CC1=O (centres undefined) | inactive |
| COc1ccc(NS(=O)(=O)c2cccc(C(=O)N3CCCC(C)C3)c2)cc1 (centres undefined) | inactive |
| Cn1nnnc1SCC(=O)NCCCc1ccccc1 | inconclusive: 9.28 µM [inhibitor, single point] |
| CCCCCCn1c(C(C)NC(=O)c2ccco2)nc2ccccc21 (centres undefined) | inconclusive: 9.28 µM [inhibitor, partial curve] |
| COc1ccc2c(c1)Cc1sc(NC(=O)c3cccs3)nc1-2 | inactive |
| COC(=O)CNc1nc(C2CC2)nc2c1nnn2Cc1ccccc1Cl | inactive |
| Cc1cccc(-n2c(-c3ccncc3)n[nH]c2=S)c1 | inconclusive: 4.65 µM [inhibitor, partial curve, poor fit] |
| CC1CN(c2ccc(Oc3ccccc3)cc2)c2nc3c(c(=O)n(CC(N)=O)c(=O)n3C)n2C1 (centres undefined) | inconclusive: 18.5 µM [inhibitor, single point] |
| CC1CN(c2nc(N(C)c3ccccc3)nc(N)c2[N+](=O)[O-])CC(C)O1 (centres undefined) | inconclusive: 8.28 µM [inhibitor, partial curve, poor fit] |

| SMILES | Potency |
| --- | --- |
| Clc1ccc(-c2csc(N/N=C/c3ccco3)n2)cc1 | inconclusive: 18.5 µM [inhibitor, single point] |
| CC1CC(=O)Nc2ccccc2N1C(=O)CSc1ncnc2sccc12 (centres undefined) | inconclusive: 18.5 µM [inhibitor, single point] |
| Cc1c(C(c2ccc(F)cc2)c2c(C)n(C)n(-c3ccccc3)c2=O)c(=O)n(-c2ccccc2)n1C | inconclusive: 10.4 µM [inhibitor, partial curve] |
| N#Cc1ccc(-c2c(-c3ccccc3)ncc3cc(F)ccc23)cc1 | inconclusive: 4.65 µM [inhibitor, single point] |
| CCN(Cc1ccccc1)S(=O)(=O)c1nc2nc(C)c(C)c(C)n2n1 | inactive |
| CCOC(=O)CNC(=O)COc1coc(CN2CCN(c3ccccc3F)CC2)cc1=O | inconclusive: 8.28 µM [inhibitor, partial curve, poor fit] |
| Cc1[nH]c2ccccc2c1CCNC(=O)c1ccc2nccnc2c1 | inactive |
| Cc1cccc(C(=O)N[C@H](C(=O)Nc2nc(C)cs2)C(C)C)c1 | inactive |
| Cc1cccc(NC(=O)CCS(=O)(=O)c2ccccc2)n1 | inactive |
| O=c1cnnc(N/N=C/c2ccccn2)[nH]1 | inconclusive: 2.62 µM [inhibitor, full curve, poor fit] |
| COC(=O)CN(C#N)c1nc(NC(C)C)nc(OC)n1 | inconclusive: 16.5 µM [inhibitor, single point] |
| O=C(CSc1nc(-c2ccccc2Cl)ns1)Nc1ccc2c(c1)OCO2 | inconclusive: 0.586 µM [inhibitor, full curve, poor fit] |
| CC1CCCCN1C(=O)COC(=O)C1CCN(S(=O)(=O)c2c(Cl)cccc2Cl)CC1 (centres undefined) | inconclusive: 14.7 µM [inhibitor, partial curve, poor fit] |
| O=S(=O)(Nc1c(S(=O)(=O)c2ccccc2)c2nc3ccccc3nc2n1C1CCCCC1)c1ccccc1 | active: 9.28 µM |
| Cc1nc(C)c(C(=O)N(c2ccc(F)cc2)C(C(=O)NCC2CCCO2)c2ccccc2)s1 (centres undefined) | inactive |
| Cc1ccc(OCc2ccc(C(=O)Nc3cc(C)on3)o2)c([N+](=O)[O-])c1 | inconclusive: 0.522 µM [inhibitor, partial curve, poor fit] |
| O=C1N[C@@H](Cc2ccccc2)C(=O)N2[C@H]1C[C@]1([C@]34C[C@H]5C(=O)N[C@@H](Cc6ccccc6)C(=O)N5[C@H]3N(S(=O)(=O)c3ccccc3)c3ccccc34)c3ccccc3N(S(=O)(=O)c3ccccc3)[C@H]21 | active: 0.738 µM |
| COc1ccc(/C=C/C(=O)OCC(=O)NC2CCCC(C)C2C)cc1S(=O)(=O)N1CCOCC1 (centres undefined) | inconclusive: 13.1 µM [inhibitor, single point] |
| O=c1[nH]ncc(N/N=C\c2ccc(O)cc2O)c1Cl | inconclusive: 0.415 µM [inhibitor, full curve, poor fit] |
| CCCCn1c(SCC(=O)Nc2nc(C)cs2)nnc1-c1cccnc1 | inconclusive: 9.28 µM [inhibitor, partial curve, poor fit] |
| CCn1nnc2cc(C(=O)N(CCOC)CC(=O)Nc3cccc(C)c3C)ccc21 | inconclusive: 13.1 µM [inhibitor, single point] |
| CC(C)(C)C(=O)Oc1cc(N)n(S(=O)(=O)c2ccc(F)cc2)n1 | inconclusive: 2.94 µM [inhibitor, partial curve, poor fit] |
| COc1cccc(C2c3c(oc4ccccc4c3=O)C(=O)N2CCCN2CCOCC2)c1 (centres undefined) | inconclusive: 18.5 µM [inhibitor, single point] |
